The target of the assay is T1, Cdc37 (Cell division cycle protein 37) (human (endogenous in MDA-MB-453 and MDA-MB-231)) (UniProt Q16543).
T1 sequence: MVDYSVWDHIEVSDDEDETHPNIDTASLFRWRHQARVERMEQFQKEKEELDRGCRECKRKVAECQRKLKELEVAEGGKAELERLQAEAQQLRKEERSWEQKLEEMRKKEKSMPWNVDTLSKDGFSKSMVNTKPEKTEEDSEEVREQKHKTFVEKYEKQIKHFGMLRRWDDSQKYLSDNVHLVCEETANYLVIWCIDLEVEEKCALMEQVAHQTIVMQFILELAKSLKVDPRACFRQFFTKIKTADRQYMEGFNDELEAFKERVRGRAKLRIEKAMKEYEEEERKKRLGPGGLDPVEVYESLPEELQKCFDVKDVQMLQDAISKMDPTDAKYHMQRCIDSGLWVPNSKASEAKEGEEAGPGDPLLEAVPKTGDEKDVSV
Put plainly: co-IP; membrane fractions of MDA-MB-453 and MDA-MB-231 cells immunoprecipitated with anti-Cdc37 (18 h, 4°C, protein G-Sepharose), Western blot with anti-HSP90, anti-HER2, anti-EGFR; cells cultured in control medium or with 200 µg/ml anti-Cdc37 or 200 µg/ml mAb 4C5 for 16 h; densitometry.

Results are given in words; binding and its absence hold for the method and conditions named. In cells and extracts the contact can be indirect. Some entries that bind do so weakly or less than the wild type.

Among the data in publication PMC3422348 are binding values, retold here.

“EGFR (from UniProt P00533 25-1210) (receptor)”: the binding entry is listed as “binds”.
